The results in this text go back to PMC6203763.

Results are given in words; binding and its absence hold for the method and conditions named. Binding seen in cells or lysates may run through a third protein. A result given as binding can be weak or reduced; the word gives no strength.

For the assay, the target named is SIRT3, co-transfected with SHMT2. The experiment in a line: co-IP; SIRT3 and SHMT2 plasmids co-transfected 24 h, then cells treated with the indicated glucose concentrations (glucose starvation); immunoprecipitation and blot.

B1: SHMT2, co-transfected with SIRT3 (protein, UniProt P34897 30-504)
chain: NAAQTQTGEANRGWTGQESLSDSDPEMWELLQREKDRQCRGLELIASENFCSRAALEALGSCLNNKYSEGYPGKRYYGGAEVVDEIELLCQRRALEAFDLDPAQWGVNVQPYSGSPANLAVYTALLQPHDRIMGLDLPDGGHLTHGYMSDVKRISATSIFFESMPYKLNPKTGLIDYNQLALTARLFRPRLIIAGTSAYARLIDYARMREVCDEVKAHLLADMAHISGLVAAKVIPSPFKHADIVTTTTHKTLRGARSGLIFYRKGVKAVDPKTGREIPYTFEDRINFAVFPSLQGGPHNHAIAAVAVALKQACTPMFREYSLQVLKNARAMADALLERGYSLVSGGTDNHLVLVDLRPKGLDGARAERVLELVSITANKNTCPGDRSAITPGGLRLGAPALTSRQFREDDFRRVVDFIDEGVNIGLEVKSKTAKLQDFKSFLLKDSETSQRLANLRQRVEQFARAFPMPGFDEH
Take B1: the binding result is recorded as “binds”.
